{
  "source": "patent US20230159619A1",
  "about": "“COMPOSITIONS AND METHODS FOR REGULATING IMMUNE SYSTEM ACTIVITY” (Olema Pharmaceuticals, Inc., priority 2017, published 2023)",
  "format_in_all_cases": "cell-based, human",
  "key": {"NFAT-Luciferase reporter [1]": {"tested_on": "NFAT-Luciferase reporter", "experiment": "NFAT-Luciferase reporter assay with ZAP70dn(1-278) constructs (Example 10)", "conditions": "Jurkat E6.1 cells, αTCR+αCD28, endoxifen alone 50 nM, no trigger-responsive polypeptide", "from_the_text": "(§1) To provide a means for assessing immune pathway activity, a construct containing a reporter gene, such as firefly luciferase (Luc), under the control of an NFAT response element can be used, as described, e.g., in Example 3. In the present Example, Jurkat E6.1 cells were transiently transfected with an NFAT-Luciferase reporter construct as well as one of (a) empty vector; (b) an expression construct encoding ZAP70dn(1-278); (c) an expression construct encoding ZAP70dn(1-278)-ER(T2); and (d) an expression construct encoding ZAP70dn(1-278)-ER(T12). Transient transfections were performed using LTX and PLUS transfection reagent (ThermoFisher Scientific) according to manufacturer's protocols.\nA first set of transfected cells was treated in the absence or presence of 1:30 dilution of Immunocult CD3/CD28/CD2 tetrameric antibody mixture (StemCell Technologies, Canada), which stimulated T-cell activity. […] Luciferase activity (luminescence) was measured and reported as a percentage induction of NFAT-Luciferase.\nA further set of transfected cells was treated in the absence or presence of 0.25 μg/ml C305 (αTCR, Sigma-Aldrich) plus 2 μg/ml αCD28.2 (Biolegend), which stimulated T-cell activity. […] Luciferase activity (luminescence) was measured and reported in relative light units (RLU)."}, "IL2-Luciferase reporter": {"tested_on": "IL2-Luciferase reporter", "experiment": "IL2-Luciferase reporter assay with SHP1(210-595) constructs (Example 12)", "conditions": "Jurkat E6.1 cells, α-CD3 and α-CD28, endoxifen alone 50 nM, no trigger-responsive polypeptide", "description": "To provide a means for assessing T cell activity, a construct containing a reporter gene, such as firefly luciferase (Luc), under the control of an IL2 response element can be used. In the present Example, Jurkat E6.1 cells were transiently transfected with an IL2-Luciferase reporter construct, as well as one of (a) empty vector; (b) an expression construct encoding SHP1(210-595); and (c) an expression construct encoding SHP1(210-595)-ER(T12). Transient transfections were performed using LTX and PLUS transfection reagent (ThermoFisher Scientific) according to manufacturer's protocols.\n(§2) Transfected cells were treated in the absence or presence of 1:30 dilution of Immunocult CD3/CD28 tetrameric antibody mixture (StemCell Technologies, Canada), which stimulated T-cell activity. Stimulated cells were then further treated with RPMI 1640 media plus 4.8% FBS stripped with charcoal dextran (ThermoFisher Scientific), without Z-endoxifen or with 50 nM Z-endoxifen (Axon-Medchem). Luciferase activity (luminescence) was measured and reported as percent induction of IL2-Luciferase."}, "NFAT-Luciferase reporter [2]": {"tested_on": "NFAT-Luciferase reporter", "experiment": "NFAT-Luciferase reporter assay in transiently transfected Jurkat E6.1 cells (Example 3)", "conditions": "control vector, α-TCR, 100 nM endoxifen, 19 hours", "from_the_text": "One outcome of T cell activation is the expression of Nuclear Factor of Activated T cells (NFAT) transcription factors. Accordingly, a construct containing a reporter gene, such as firefly luciferase (Luc), under the control of an NFAT response element can be used to assess T cell activity. Such a construct can either be transiently transfected into cells (e.g., Jurkat cells, which are an immortalized line of human T cells) or stably integrated into a cell line (e.g., a derivative Jurkat cell line). These reporter genes can be used to measure activation, or inhibition, of T cell activation pathways. […]\nAfter 19 hours, luciferase activity was assayed with Bright-Glo substrate according to manufacturer's protocols (Promega). Luminescence was detected on the Varioskan Lux (ThermoFisher Scientific) plate reader at a 1 second interval. The luminescence was measured and reported in relative light units (RLU). […]"}, "NFAT-Luciferase reporter [3]": {"tested_on": "NFAT-Luciferase reporter", "experiment": "NFAT-Luciferase reporter assay with LCK(1-266) constructs (Example 11)", "conditions": "Jurkat E6.1 cells, α-CD3 and α-CD28, endoxifen alone 100 nM, no trigger-responsive polypeptide", "from_the_text": "as §1, with “assessing T cell” for “assessing immune pathway”, “reporter construct,” for “reporter construct”, “empty vector control;” for “empty vector;”, “encoding LCK(1-266); and” for “encoding ZAP70dn(1-278);”, “encoding LCK(1-266)-ER(T12).” for “encoding ZAP70dn(1-278)-ER(T2); and (d) an expression construct encoding ZAP70dn(1-278)-ER(T12).”\nas §2, with “1:80” for “1:30”, “Scientific), either” for “Scientific),”, “100” for “50”, “NFAT-Luciferase.” for “IL2-Luciferase.”"}},
  "note": "For at least one compound, name, drawing or mass did not settle the structure.",
  "data": [
    {"smiles": "CC/C(=C(\\c1ccc(O)cc1)c1ccc(OCCNC)cc1)c1ccccc1", "note": "[endoxifen, reference compound]", "values": [
      {"measurement": "luciferase reporter expression (RLU)", "setting": "NFAT-Luciferase reporter [1]", "value": "did not significantly effect luciferase expression"},
      {"measurement": "luciferase reporter expression (percent induction of IL2-Luciferase)", "setting": "IL2-Luciferase reporter", "value": "did not significantly effect luciferase expression"},
      {"measurement": "luciferase expression from the NFAT-luciferase construct", "setting": "NFAT-Luciferase reporter [2]", "value": "not affecting luciferase expression"},
      {"measurement": "luciferase reporter expression (percent induction of NFAT-Luciferase)", "setting": "NFAT-Luciferase reporter [3]", "value": "did not significantly effect luciferase expression"}
    ]}
  ]
}
